# In article PMC8314533:
# Protein sequences, listed by entry. Tags and fused reporters are not part of them.
# UniProt P46937: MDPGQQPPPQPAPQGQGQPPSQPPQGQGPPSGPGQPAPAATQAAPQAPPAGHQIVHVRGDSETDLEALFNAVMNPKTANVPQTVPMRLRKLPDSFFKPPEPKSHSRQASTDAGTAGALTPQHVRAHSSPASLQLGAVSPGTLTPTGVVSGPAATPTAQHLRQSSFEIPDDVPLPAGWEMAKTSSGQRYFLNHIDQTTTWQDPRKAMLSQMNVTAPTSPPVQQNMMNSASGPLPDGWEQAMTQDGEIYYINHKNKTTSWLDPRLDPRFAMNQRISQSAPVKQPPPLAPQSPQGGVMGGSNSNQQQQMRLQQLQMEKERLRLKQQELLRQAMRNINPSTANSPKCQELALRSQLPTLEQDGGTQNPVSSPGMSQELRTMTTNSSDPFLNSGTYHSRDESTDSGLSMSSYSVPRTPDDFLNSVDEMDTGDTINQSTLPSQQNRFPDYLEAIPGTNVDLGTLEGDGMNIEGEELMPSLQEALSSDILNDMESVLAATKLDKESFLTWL
# No constants are given. Whether binding was seen depends on the method and setting. Binding seen in cells or lysates may run through a third protein. Some entries that bind do so weakly or less than the wild type. For part of these data: Where a sequence is shown, tags or fusion partners need not be part of it.
# T1: Flag-MINDY1 full length (UniProt Q8N5J2)
# T1 sequence: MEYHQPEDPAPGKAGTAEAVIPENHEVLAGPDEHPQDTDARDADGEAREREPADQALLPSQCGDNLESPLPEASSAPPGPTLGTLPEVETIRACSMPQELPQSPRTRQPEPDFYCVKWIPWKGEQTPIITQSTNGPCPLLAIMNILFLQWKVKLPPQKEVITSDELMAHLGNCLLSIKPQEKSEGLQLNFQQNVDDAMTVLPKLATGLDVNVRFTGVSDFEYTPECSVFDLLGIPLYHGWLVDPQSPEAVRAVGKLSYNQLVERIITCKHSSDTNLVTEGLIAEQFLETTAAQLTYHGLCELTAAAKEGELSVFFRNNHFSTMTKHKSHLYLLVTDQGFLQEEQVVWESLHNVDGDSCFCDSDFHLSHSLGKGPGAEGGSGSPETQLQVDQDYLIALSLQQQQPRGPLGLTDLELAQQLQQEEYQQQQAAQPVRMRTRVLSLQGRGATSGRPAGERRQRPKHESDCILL
# B1: MINDY1 (endogenous, T24 cells) (enzyme, UniProt Q8N5J2 1-469)
# chain: T1 sequence
# B2: Flag-MINDY1 full length (enzyme, UniProt Q8N5J2 1-469)
# chain: T1 sequence
# How the values were obtained:
# [1] = target: T1, Flag-MINDY1 full length; experiment: co-IP; HEK293 cells transfected with 2 µg Flag-MINDY1 together with Myc-YAP full length or mutants; 24 h; NP-40 lysis buffer; IP with Flag antibody, detection with Myc antibody
# [2] = target: Yes-associated protein (YAP) (endogenous, T24 cells) (human (endogenous in T24)) (UniProt P46937); experiment: co-IP; endogenous proteins in T24 cells; harvested with RIPA lysis buffer; Co-IP with antibody as indicated; Protein A/G PLUS-Agarose, 4 °C
# [3] = target: Myc-YAP full length (UniProt P46937); experiment: co-IP; HEK293 cells transfected with 2 µg Myc-YAP together with Flag-MINDY1 full length or mutants; 24 h; NP-40 lysis buffer; IP with Myc antibody, detection with Flag antibody
molecule,measurement,setting,value
Myc-YAP full length (from UniProt P46937 1-504),binding,[1],binds
B1,binding,[2],binds
B2,binding,[3],binds
